Reference: PubChem BioAssay AID1224830 (NIAID, 2016)

- Test: 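Regulators of TLR4 signalling towards TNF-alpha in macrophage-like cells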 (primary screen)
- Cell system: human THP-1 monocytic leukaemia cells, TNF dual-luciferase reporter clone, PMA-differentiated to macrophage-like cells
- Reagents: siRNA pool against human genes, 50 nM
- Timing: LPS for 4 h, given about 3 days after siRNA transfection
- Challenge: bacterial LPS (TLR4 ligand), 10 ng/ml
- Measurement: 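TNF firefly reporter luminescence divided by renilla, normalised to the plate median, then turned into a robust z-score for each replicate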
- Direction: TNF reporter robust z-score: higher = stronger TNF reporter response to LPS
- Call rule: 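a well is active when its z-score exceeds 2.8 or falls below -1.5; control wells carry no call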
In all, the deposit lists about 18,000 reagents; shown is a random part of them. Of all reagents, about 2,900 (16%) were called active. 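Calls are made per well; low scores hint the gene aids the LPS response, high scores that it dampens it.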 Repeated entries: four replicate wells of each siRNA pool.

CNTRL (centriolin) scored TNF reporter robust z-score -1; inactive.
CNTRL (centriolin) showed TNF reporter robust z-score -0.51; inactive.
After knock-down of CNTRL (centriolin) the results were TNF reporter robust z-score -0.64; inactive.
After knock-down of CNTRL (centriolin) the results were TNF reporter robust z-score -0.94; inactive.
Knock-down of H3C12 (H3 clustered histone 12) gave: TNF reporter robust z-score -1.04; inactive.
After knock-down of H3C12 (H3 clustered histone 12), the record shows TNF reporter robust z-score -0.38; inactive.
After knock-down of H3C12 (H3 clustered histone 12), the screen gave TNF reporter robust z-score -0.34; inactive.
With knock-down of H3C12 (H3 clustered histone 12), the record shows TNF reporter robust z-score -0.29; inactive.
After knock-down of RPAP1 (RNA polymerase II associated protein 1), the screen gave TNF reporter robust z-score -0.02; inactive.
Depletion of RPAP1 (RNA polymerase II associated protein 1) resulted in: TNF reporter robust z-score -0.17; inactive.
For RPAP1 (RNA polymerase II associated protein 1), the values are TNF reporter robust z-score 0.13; inactive.
With knock-down of RPAP1 (RNA polymerase II associated protein 1) the results were TNF reporter robust z-score 0.91; inactive.
Against OR4X1 (olfactory receptor family 4 subfamily X member 1) the deposit lists TNF reporter robust z-score -0.21; inactive.
OR4X1 (olfactory receptor family 4 subfamily X member 1) showed TNF reporter robust z-score -0.31; inactive.
OR4X1 (olfactory receptor family 4 subfamily X member 1) showed TNF reporter robust z-score -0.17; inactive.
Silencing of OR4X1 (olfactory receptor family 4 subfamily X member 1) resulted in: TNF reporter robust z-score -0.44; inactive.
Against SLC2A1 the deposit lists TNF reporter robust z-score -1.72; active.
After knock-down of SLC2A1 the results were TNF reporter robust z-score -1.11; inactive.
With knock-down of SLC2A1, the screen gave TNF reporter robust z-score -1.51; active.

Copied from above (3 entries):
CNTRL (centriolin) → TNF reporter robust z-score = -0.64; outcome = inactive
CNTRL (centriolin) → TNF reporter robust z-score = -0.94; outcome = inactive
H3C12 (H3 clustered histone 12) → TNF reporter robust z-score = -1.04; outcome = inactive
